Assay results published in US20180243437A1.
These are yes or no findings as the source states them, for the method shown. Some entries that bind do so weakly or less than the wild type.

Amino acid sequences for entries named in this document (tags omitted). A change or cut given only in a name is not applied to a line headed by its entry.
UniProt P35968: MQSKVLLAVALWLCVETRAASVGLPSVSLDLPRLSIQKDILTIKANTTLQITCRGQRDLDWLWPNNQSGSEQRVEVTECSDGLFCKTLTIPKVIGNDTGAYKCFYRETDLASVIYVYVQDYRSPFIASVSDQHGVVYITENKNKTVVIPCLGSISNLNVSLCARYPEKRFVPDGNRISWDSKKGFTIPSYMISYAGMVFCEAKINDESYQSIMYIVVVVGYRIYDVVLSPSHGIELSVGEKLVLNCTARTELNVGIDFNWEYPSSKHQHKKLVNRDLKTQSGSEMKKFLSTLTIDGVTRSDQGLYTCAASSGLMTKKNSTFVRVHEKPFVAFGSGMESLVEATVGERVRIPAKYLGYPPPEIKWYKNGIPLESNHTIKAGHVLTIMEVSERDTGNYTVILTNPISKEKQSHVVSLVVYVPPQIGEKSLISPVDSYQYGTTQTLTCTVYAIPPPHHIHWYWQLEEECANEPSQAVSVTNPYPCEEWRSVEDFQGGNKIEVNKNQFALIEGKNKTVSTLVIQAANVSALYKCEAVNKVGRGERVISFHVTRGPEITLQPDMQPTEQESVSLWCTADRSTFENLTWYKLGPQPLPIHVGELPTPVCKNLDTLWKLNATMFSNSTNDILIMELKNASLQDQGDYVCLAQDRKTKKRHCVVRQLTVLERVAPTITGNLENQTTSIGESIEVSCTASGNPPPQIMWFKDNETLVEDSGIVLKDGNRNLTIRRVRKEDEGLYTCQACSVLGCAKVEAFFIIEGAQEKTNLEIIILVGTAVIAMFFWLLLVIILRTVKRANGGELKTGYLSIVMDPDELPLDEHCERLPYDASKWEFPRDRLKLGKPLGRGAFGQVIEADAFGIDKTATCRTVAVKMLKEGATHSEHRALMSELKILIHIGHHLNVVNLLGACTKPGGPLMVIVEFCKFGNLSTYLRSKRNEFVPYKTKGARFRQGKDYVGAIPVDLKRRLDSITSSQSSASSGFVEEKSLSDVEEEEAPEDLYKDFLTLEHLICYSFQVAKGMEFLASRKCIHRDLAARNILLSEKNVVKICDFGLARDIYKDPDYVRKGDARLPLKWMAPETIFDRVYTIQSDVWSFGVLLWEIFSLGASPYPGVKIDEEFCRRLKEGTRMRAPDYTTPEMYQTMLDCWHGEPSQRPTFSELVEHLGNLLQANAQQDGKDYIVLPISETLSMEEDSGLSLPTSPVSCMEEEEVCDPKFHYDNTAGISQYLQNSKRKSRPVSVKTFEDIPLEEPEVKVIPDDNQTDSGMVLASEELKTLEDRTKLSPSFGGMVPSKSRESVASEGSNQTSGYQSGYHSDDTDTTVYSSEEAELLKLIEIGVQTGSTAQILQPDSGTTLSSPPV

Molecular target: human VEGFR2 (KDR) expressed on 293/KDR cells (human) (UniProt P35968)
Assay: flow cytometry on 293/KDR cells, competition of unlabelled AB1 against 1 µg/mL Biotin-AB1 [panel Unlabelled AB1]

binding: binds
B1: free AB1 antibody (VHH)
VHH: QVQLVESGGGLVQAGGSLRLSCAASGRAFSSYAMGWFRQAPGKERELVAAISWSDDSTYYANSVKGRFTISRDNAKSAVYLQMNSLKPEDTAVYYCAAHKSLQRPDEYTYWGQGTQVTVSS
